# According to patent US20070015737A1, “Compounds for inhibiting diseases and preparing cells for transplantation” (Neurochem (International) Limited, priority 1999, published 2007):
# Tested on: amyloid in transgenic islets cells expressing human IAPP
# Test: Electron micrograph analysis of amyloid in cultured transgenic islets
# Type: cell-based, mouse
# Excerpt: These are used as a test system for determining the toxicity and effect of putative amyloid inhibitors in short term culture systems. Whereas normal mice can be used to determine toxicity of compounds added to the media, amyloid fibrils form only in murine islets isolated from transgenic mice expressing the gene for human IAPP (transgene incorporation was confirmed by PCR). These islets are isolated in a similar way to that of human islets and are handpicked from the digest and cultured in 16.7 mM glucose as above. Amyloid fibrils formed within 4 days of culture and can be quantified by quantitative electron microscopy. […] The cells were cultured for 6 days in 11.1 mM glucose and RPMI.
# Transgenic islets cells were cultured as described above, for 7 days and the media changed every two days. At the end of the culture period the islets were fixed in 2.5% glutaraldehyde in 0.1M sodium phosphate buffer (pH 7.2) for one hour and post-fixed in 1% osmium tetroxide, and embedded in Spurr's resin (Taab Laboratories, Reading, UK) or contrast enhanced in 2% Uranyl Acetate, dehydrated in methanol and embedded in LRGold (Taab, as previous). […]
# Images of 3 islet sections at a low magnification were prepared. […] The total islet area, together with the area of intra and extra cellular amyloid was then calculated using image analysis (Kontron Image Processor). […]
structure (smiles),measurement,setting,value
"COc1ccc(S(=O)(=O)O)c2cccnc12 [vii, 8-methoxyquinoline-5-sulfonic acid]",Total islet area,"Average of 3 islets, 7 days culture",5407.21 μm^2
same,Total islet area,"individual islets 1-3, 7 days culture",5744.23 μm^2 and 7360.63 μm^2 and 3616.76 μm^2

# Where “and” joins values, the source holds several entries; their conditions need not be identical. Identical values can stand only once.
